From article doi:10.1101/2023.08.31.555722
No constants are given. Whether binding was seen depends on the method and setting. Binding seen in cells or lysates may run through a third protein. Some binding calls cover weakened binding; strength is not graded here. Sequences can lack the tags named with a protein.

B1: Vps8 (without tag) (protein, UniProt Q8N3P4 1-1428)
chain: MENEPDHENVEQSLCAKTSEEELNKSFNLEASLSKFSYIDMDKELEFKNDLIDDKEFDIPQVDTPPTLESILNETDDEDESFILEDPTLLNIDTIDSHSYDTSSVASSDSGDRTNLKRKKKLPDSFSLHGSVMRHSLLKGISAQIVSAADKVDAGLPTAIAVSSLIAVGTSHGLALIFGKDQNQALRLCLGSTSVGGQYGAISALSINNDCSRLLCGFAKGQITMWDLASGKLLRSITDAHPPGTAILHIKFTDDPTLAICNDSGGSVFELTFKRVMGVRTCESRCLFSGSKGEVCCIEPLHSKPELKDHPITQFSLLAMASLTKILVIGLKPSLKVWMTFPYGRMDPSSVPLLAWHFVAVQNYVNPMLAFCRGDVVHFLLVKRDESGAIHVTKQKHLHLYYDLINFTWINSRTVVLLDSVEKLHVIDRQTQEELETVEISEVQLVYNSSHFKSLATGGNVSQALALVGEKACYQSISSYGGQIFYLGTKSVYVMMLRSWRERVDHLLKQDCLTEALALAWSFHEGKAKAVVGLSGDASKRKAIVADRMVEILFHYADRALKKCPDQGKIQVMEQHFQDMVPVIVDYCLLLQRKDLLFSQMYDKLSENSVAKGVFLECLEPYILSDKLVGITPQVMKDLIVHFQDKKLMENVEALIVHMDITSLDIQQVVLMCWENRLYDAMIYVYNRGMNEFISPMEKLFRVIAPPLNAGKTLTDEQVVMGNKLLVYISCCLAGRAYPLGDIPEDLVPLVKNQVFEFLIRLHSAEASPEEEIYPYIRTLLHFDTREFLNVLALTFEDFKNDKQAVEYQQRIVDILLKVMVENSDFTPSQVGCLFTFLARQLAKPDNTLFVNRTLFDQVLEFLCSPDDDSRHSERQQVLLELLQAGGIVQFEESRLIRMAEKAEFYQICEFMYEREHQYDKIIDCYLRDPLREEEVFNYIHNILSIPGHSAEEKQSVWQKAMDHIEELVSLKPCKAAELVATHFSGHIETVIKKLQNQVLLFKFLRSLLDPREGIHVNQELLQISPCITEQFIELLCQFNPTQVIETLQVLECYRLEETIQITQKYQLHEVTAYLLEKKGDIHGAFLIMLERLQSKLQEVTHQGENTKEDPSLKDVEDTMVETIALCQRNSHNLNQQQREALWFPLLEAMMAPQKLSSSAIPHLHSEALKSLTMQVLNSMAAFIALPSILQRILQDPVYGKGKLGEIQGLILGMLDTFNYEQTLLETTTSLLNQDLHWSLCNLRASVTRGLNPKQDYCSICLQQYKRRQEMADEIIVFSCGHLYHSFCLQNKECTVEFEGQTRWTCYKCSSSNKVGKLSENSSEIKKGRITPSQVKMSPSYHQSKGDPTAKKGTSEPVLDPQQIQAFDQLCRLYRGSSRLALLTELSQNRSSESYRPFSGSQSAPAFNSIFQNENFQLQLIPPPVTED
B2: Vps41-HA (protein, UniProt P49754 1-854)
chain: MAEAEEQETGSLEESTDESEEEESEEEPKLKYERLSNGVTEILQKDAASCMTVHDKFLALGTHYGKVYLLDVQGNITQKFDVSPVKINQISLDESGEHMGVCSEDGKVQVFGLYSGEEFHETFDCPIKIIAVHPHFVRSSCKQFVTGGKKLLLFERSWMNRWKSAVLHEGEGNIRSVKWRGHLIAWANNMGVKIFDIISKQRITNVPRDDISLRPDMYPCSLCWKDNVTLIIGWGTSVKVCSVKERHASEMRDLPSRYVEIVSQFETEFYISGLAPLCDQLVVLSYVKEISEKTEREYCARPRLDIIQPLSETCEEISSDALTVRGFQENECRDYHLEYSEGESLFYIVSPRDVVVAKERDQDDHIDWLLEKKKYEEALMAAEISQKNIKRHKILDIGLAYINHLVERGDYDIAARKCQKILGKNAALWEYEVYKFKEIGQLKAISPYLPRGDPVLKPLIYEMILHEFLESDYEGFATLIREWPGDLYNNSVIVQAVRDHLKKDSQNKTLLKTLAELYTYDKNYGNALEIYLTLRHKDVFQLIHKHNLFSSIKDKIVLLMDFDSEKAVDMLLDNEDKISIKKVVEELEDRPELQHVYLHKLFKRDHHKGQRYHEKQISLYAEYDRPNLLPFLRDSTHCPLEKALEICQQRNFVEETVYLLSRMGNSRSALKMIMEELHDVDKAIEFAKEQDDGELWEDLILYSIDKPPFITGLLNNIGTHVDPILLIHRIKEGMEIPNLRDSLVKILQDYNLQILLREGCKKILVADSLSLLKKMHRTQMKGVLVDEENICESCLSPILPSDAAKPFSVVVFHCRHMFHKECLPMPSMNSAAQFCNICSAKNRGPGSAILEMKK
B3: Vps41-HA, P49754 1-854 (protein)
chain: B2 chain

Tests used:
Assay in all cases: co-IP
Tgfbrap1-FLAG (human) = molecular target: T1, Tgfbrap1-FLAG (human) (UniProt Q8WUH2)
T1 sequence: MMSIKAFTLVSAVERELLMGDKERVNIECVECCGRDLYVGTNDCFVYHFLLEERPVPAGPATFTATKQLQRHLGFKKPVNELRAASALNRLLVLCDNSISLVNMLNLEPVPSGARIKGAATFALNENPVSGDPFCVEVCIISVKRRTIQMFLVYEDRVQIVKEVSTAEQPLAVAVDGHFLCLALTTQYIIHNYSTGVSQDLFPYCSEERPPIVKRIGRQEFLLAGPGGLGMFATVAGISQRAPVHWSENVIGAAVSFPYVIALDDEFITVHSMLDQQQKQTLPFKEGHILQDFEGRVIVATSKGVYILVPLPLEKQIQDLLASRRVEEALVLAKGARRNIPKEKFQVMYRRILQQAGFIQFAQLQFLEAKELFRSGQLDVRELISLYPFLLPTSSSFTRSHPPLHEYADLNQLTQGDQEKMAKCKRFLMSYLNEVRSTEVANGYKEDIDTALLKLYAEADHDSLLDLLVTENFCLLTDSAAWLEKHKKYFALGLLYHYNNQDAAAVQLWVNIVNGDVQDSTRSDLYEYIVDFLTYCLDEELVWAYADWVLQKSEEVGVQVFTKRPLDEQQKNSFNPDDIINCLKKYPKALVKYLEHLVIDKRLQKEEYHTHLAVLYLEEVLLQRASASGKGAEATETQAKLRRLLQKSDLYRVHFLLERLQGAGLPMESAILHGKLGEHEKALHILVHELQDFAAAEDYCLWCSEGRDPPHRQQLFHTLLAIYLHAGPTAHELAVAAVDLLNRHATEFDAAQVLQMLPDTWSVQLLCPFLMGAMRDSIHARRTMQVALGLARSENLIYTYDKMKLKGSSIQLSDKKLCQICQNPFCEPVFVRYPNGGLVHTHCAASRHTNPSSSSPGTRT

Vps39-FLAG (human) = molecular target: T2, Vps39-FLAG (human) (UniProt Q96JC1)
T2 sequence: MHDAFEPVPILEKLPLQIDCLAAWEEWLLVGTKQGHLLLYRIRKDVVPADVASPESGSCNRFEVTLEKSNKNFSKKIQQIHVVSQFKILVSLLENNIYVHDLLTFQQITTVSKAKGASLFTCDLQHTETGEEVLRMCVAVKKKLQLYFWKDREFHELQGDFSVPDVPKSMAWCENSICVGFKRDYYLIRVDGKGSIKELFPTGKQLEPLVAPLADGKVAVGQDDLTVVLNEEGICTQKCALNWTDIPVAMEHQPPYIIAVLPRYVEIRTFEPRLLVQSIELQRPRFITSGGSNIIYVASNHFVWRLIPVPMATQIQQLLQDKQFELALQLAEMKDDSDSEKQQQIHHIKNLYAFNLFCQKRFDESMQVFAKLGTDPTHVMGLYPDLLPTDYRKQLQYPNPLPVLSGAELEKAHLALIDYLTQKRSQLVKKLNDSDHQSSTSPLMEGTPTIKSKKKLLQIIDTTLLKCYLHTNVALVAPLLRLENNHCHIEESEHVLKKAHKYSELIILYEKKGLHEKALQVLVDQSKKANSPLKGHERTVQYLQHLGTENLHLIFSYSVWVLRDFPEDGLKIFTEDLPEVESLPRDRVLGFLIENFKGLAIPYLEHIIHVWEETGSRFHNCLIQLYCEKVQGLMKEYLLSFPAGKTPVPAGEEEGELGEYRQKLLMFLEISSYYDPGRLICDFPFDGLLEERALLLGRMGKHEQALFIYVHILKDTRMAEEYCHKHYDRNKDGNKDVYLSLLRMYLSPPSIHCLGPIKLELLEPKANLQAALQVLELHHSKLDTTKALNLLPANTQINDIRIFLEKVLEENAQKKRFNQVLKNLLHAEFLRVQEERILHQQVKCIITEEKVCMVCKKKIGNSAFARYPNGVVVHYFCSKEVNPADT

[1] = molecular target: T3, Tgfbrap1-FLAG (human), Q8WUH2; conditions: remark: other sources report otherwise
T3 chain: T1 sequence

| Binder | binding (Tgfbrap1-FLAG (human)) | binding (Vps39-FLAG (human)) | binding [1] |
| --- | --- | --- | --- |
| B1 | binds | binds |  |
| B2 |  | binds |  |
| B3 |  |  | no binding |
